Results on three molecules are retold here after PMC2965115.

By UniProt entry, the sequences of proteins in these tests, tags left out.
UniProt G5EBZ4: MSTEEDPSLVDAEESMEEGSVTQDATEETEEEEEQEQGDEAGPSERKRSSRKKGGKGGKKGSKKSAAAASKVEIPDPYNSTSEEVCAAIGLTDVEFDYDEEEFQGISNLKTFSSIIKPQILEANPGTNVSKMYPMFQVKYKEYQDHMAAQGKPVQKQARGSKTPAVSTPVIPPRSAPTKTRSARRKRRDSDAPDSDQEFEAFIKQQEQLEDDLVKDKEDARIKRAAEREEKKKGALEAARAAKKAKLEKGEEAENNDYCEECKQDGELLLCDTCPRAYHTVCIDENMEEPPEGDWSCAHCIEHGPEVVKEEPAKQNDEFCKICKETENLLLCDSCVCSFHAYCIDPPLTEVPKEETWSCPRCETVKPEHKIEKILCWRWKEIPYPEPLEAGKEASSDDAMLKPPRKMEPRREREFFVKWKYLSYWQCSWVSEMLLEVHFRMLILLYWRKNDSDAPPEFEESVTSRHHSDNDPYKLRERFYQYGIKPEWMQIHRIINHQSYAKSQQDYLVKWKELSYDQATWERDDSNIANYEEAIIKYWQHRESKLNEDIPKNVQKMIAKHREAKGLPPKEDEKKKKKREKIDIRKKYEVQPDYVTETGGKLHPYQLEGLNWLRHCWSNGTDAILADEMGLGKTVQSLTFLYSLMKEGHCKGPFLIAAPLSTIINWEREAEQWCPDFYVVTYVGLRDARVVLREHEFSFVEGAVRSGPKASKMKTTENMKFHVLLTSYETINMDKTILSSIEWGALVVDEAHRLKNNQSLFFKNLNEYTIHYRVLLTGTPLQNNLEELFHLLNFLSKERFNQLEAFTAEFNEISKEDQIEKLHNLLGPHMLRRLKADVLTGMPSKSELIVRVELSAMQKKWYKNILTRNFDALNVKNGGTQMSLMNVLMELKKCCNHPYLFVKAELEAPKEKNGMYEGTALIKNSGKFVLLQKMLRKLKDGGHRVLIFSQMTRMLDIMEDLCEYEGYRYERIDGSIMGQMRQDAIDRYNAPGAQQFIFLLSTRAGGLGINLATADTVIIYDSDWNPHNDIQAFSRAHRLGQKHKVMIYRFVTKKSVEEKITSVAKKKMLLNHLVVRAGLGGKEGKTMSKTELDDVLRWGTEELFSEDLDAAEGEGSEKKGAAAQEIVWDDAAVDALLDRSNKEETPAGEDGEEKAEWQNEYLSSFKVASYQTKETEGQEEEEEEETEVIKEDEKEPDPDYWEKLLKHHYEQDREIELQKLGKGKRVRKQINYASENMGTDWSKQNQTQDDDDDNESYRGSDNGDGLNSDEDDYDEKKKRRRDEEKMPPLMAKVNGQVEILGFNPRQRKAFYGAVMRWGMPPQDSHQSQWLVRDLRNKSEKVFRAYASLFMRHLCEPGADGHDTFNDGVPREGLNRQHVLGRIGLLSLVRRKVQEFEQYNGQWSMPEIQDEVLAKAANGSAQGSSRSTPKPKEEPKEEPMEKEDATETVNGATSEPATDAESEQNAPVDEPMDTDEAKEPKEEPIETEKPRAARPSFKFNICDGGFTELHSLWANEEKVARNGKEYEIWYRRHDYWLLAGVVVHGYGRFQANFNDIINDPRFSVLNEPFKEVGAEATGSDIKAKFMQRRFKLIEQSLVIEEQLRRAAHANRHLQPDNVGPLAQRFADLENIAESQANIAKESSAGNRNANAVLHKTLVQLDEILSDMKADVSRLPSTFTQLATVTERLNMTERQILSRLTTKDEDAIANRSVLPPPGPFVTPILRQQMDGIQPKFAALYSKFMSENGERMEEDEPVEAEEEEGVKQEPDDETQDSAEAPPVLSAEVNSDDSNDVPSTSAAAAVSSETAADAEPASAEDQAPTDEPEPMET

These are yes or no findings as the source states them, for the method shown. For part of these data: In cells and extracts the contact can be indirect. For part of these data: Where a sequence is shown, tags or fusion partners need not be part of it. Some results given as binding are weak or reduced against the parent protein; the word gives no strength.

Assay [1] deals with LET-418 (C. elegans (endogenous in mixed-stage worms)) (UniProt G5EBZ4). Kind of assay: SEC; fractionation of protein extracts from lin-40::gfp mixed-stage worms by Superdex 200 gel filtration; fractions analysed by Western blot. (Size exclusion chromatography separates by hydrodynamic size, large species first.)
The target in assay [2] is T1, MEP-1 (C. elegans (endogenous in mixed-stage worms)), Q21502.
T1 chain: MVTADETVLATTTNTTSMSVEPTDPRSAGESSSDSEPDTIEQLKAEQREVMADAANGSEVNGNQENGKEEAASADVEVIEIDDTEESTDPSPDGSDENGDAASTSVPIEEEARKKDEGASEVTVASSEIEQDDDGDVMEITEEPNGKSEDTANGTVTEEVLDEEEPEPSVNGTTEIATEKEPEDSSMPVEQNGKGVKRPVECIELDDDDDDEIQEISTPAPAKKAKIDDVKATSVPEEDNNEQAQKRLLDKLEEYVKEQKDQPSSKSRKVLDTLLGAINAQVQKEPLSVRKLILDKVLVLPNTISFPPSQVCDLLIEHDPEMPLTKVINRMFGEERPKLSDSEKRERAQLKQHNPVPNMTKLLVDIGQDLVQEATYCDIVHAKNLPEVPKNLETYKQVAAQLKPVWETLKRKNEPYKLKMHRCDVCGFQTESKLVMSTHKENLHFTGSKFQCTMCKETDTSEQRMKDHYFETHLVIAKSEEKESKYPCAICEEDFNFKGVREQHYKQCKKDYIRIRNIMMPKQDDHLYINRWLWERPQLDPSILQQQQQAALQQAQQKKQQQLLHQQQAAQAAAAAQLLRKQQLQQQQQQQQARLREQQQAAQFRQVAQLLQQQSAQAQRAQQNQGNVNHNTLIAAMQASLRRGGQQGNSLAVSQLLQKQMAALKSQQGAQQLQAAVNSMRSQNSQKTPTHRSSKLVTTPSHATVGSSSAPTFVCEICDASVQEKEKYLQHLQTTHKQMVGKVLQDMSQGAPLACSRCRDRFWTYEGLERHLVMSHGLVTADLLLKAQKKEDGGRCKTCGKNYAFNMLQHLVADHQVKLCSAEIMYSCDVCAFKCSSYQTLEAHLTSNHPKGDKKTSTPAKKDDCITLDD
Kind of assay: co-IP; approximatively 1 mg of protein extract from mixed-stage worms with 1 µg of antibodies per reaction; anti-AFP mAb 3E6 for GFP-tagged proteins; immunoprecipitates analysed by Western blot. The conditions noted are these: remark: other sources report otherwise. Background: In western blotting, separated proteins are transferred to a membrane and probed.

In assay [3] the target is LET-418 (C. elegans (endogenous in mixed-stage worms)) (UniProt G5EBZ4). The description is as above.

B1: MEP-1 (protein, UniProt Q21502 1-870)
chain: T1 chain
For the molecule B1, in assay [1], the binding result is reported as “binds”.

B2: LIN-53, P90916 1-417 (protein)
chain: MATLEDGTSEDRVANDEYKIWKKNTPFLYDLVMTHALEWPSLSVQWLPDVAKDNSDHTIHRLILGTHTSDEQNHLLISKICMPTDDAQFDASRYDTERSEYGGFGAVNGKVEPDIRINHEGEVNRARYMPQKSNIIATKSPHADVYIFDYLKHSAVPRDNTFNPLIRLKGHTKEGYGLSWNPNKEGLILSASDDQTVCHWDINANQNVAGELQAKDVFKGHESVVEDVAWHVLHDGVFGSVGDDKKLLIWDVRTSTPGHCIDAHSAEVNCLAFNPYSEFILATGSADKTVALWDLRNLRMKLHSFESHRDEIFQVQWSPHNETILASSGTDKRLHVWDLSKIGEDQSAEDAEDGPPELLFIHGGHTAKISDFSWNPNEPWVVCSVSEDNILQVWQMADNIYNEVDEETPADVVERQQ
Consider B2, for which the binding result in assay [2] is listed as “no binding”.

B3: HDA-2 (protein, UniProt Q09440 1-507)
chain: MSSDKFKLDTLFDDNDEIIEPDGADVKKRNVAYYYHKDVGHFHYGQLHPMKPQRLVVCNDLVVSYEMPKYMTVVESPKLDAADISVFHTEDYVNFLQTVTPKLGLTMPDDVLRQFNIGEDCPIFAGLWDYCTLYAGGSVEGARRLNHKMNDIVINWPGGLHHAKKSEASGFCYVNDIVLGILELLKYHKRVLYIDIDIHHGDGVQEAFNNSDRVMTVSFHRFGQYFPGSGSIMDKGVGPGKYFAINVPLMAAIRDEPYLKLFESVISGVEENFNPEAIVLQCGSDSLCEDRLGQFALSFNAHARAVKYVKSLGKPLMVLGGGGYTLRNVARCWALETGVILGLRMDDEIPGTSLYSHYFTPRLLRPNLVPKMNDANSAAYLASIEKETLACLRMIRGAPSVQMQNIVGIRLDEIEQIEENERLQKSSKSSIEYEVGKVSEKMEEECFVEEDSKPPSFPPGQDPRRIGQYWGYDRSGLAPPRSHSDVIEEAKYEDRDRRKDLNIPGIP
On to B3, for which, in assay [3], the binding result is “no binding”.
